Laboratory results as given in article PMC6756050.
No constants are given. Whether binding was seen depends on the method and setting. For some assays here: Binding seen in cells or lysates may run through a third protein. Some binding calls cover weakened binding; strength is not graded here. For some assays here: Where a sequence is shown, tags or fusion partners need not be part of it.

Chains of the proteins cited; added tags and fusions are not shown.
UniProt Q00987: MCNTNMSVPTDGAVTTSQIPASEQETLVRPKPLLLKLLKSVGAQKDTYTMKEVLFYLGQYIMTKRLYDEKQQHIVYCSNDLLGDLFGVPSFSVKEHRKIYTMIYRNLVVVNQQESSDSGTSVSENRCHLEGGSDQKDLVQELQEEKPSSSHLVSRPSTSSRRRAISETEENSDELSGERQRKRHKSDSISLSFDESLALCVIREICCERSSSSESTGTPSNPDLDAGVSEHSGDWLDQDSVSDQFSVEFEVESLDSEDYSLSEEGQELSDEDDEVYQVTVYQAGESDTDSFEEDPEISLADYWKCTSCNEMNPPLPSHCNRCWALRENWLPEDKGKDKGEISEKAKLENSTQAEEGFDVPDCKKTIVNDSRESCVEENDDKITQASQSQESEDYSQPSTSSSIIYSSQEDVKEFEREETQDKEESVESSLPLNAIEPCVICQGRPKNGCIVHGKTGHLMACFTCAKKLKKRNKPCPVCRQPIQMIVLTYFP

T1: endogenous MDM4 (human (endogenous in H1299)) (UniProt O15151)
T1 sequence: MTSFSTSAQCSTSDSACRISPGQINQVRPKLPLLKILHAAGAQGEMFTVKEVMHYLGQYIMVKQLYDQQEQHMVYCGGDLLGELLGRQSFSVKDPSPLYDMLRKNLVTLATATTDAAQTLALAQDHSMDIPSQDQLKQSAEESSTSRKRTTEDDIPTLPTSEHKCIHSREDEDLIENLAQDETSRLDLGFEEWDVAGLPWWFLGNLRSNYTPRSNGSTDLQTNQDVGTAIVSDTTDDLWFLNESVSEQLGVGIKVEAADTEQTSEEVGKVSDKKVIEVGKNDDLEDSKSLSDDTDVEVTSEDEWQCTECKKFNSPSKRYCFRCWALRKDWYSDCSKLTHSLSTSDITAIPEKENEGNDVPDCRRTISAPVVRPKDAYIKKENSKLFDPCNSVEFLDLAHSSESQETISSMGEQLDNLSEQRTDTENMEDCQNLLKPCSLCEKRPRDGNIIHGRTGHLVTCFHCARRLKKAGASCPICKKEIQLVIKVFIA

B1: endogenous HBP1 (protein, UniProt O60381 1-514)
chain: MVWEVKTNQMPNAVQKLLLVMDKRASGMNDSLELLQCNENLPSSPGYNSCDEHMELDDLPELQAVQSDPTQSGMYQLSSDVSHQEYPRSSWNQNTSDIPETTYRENEVDWLTELANIATSPQSPLMQCSFYNRSSPVHIIATSKSLHSYARPPPVSSSSKSEPAFPHHHWKEETPVRHERANSESESGIFCMSSLSDDDDLGWCNSWPSTVWHCFLKGTRLCFHKGSNKEWQDVEDFARAEGCDNEEDLQMGIHKGYGSDGLKLLSHEESVSFGESVLKLTFDPGTVEDGLLTVECKLDHPFYVKNKGWSSFYPSLTVVQHGIPCCEVHIGDVCLPPGHPDAINFDDSGVFDTFKSYDFTPMDSSAVYVLSSMARQRRASLSCGGPGGQDFARSGFSKNCGSPGSSQLSSNSLYAKAVKNHSSGTVSATSPNKCKRPMNAFMLFAKKYRVEYTQMYPGKDNRAISVILGDRWKKMKNEERRMYTLEAKALAEEQKRLNPDCWKRKRTNSGSQQH
B2: His-tagged HBP1 (protein, UniProt O60381 1-514)
chain: B1 chain

Experiments:
[1] = target: T1, endogenous MDM4 (human (endogenous in H1299)); assay: co-IP; endogenous proteins of p53-null H1299 cells; IP with anti-HBP1, anti-MDM2 or anti-MDM4, blot with MDM2, MDM4 or HBP1 antibody; IP lysis buffer
GST-MDM2 = GST-MDM2 (UniProt Q00987); assay: pull-down; purified GST-tagged proteins or GST alone on glutathione-Sepharose beads overnight at 4 °C, His-tagged proteins added for 4 h at 4 °C, three washes, elution, western blot; both purified

Binder | binding [1] | binding (GST-MDM2)
B1 | binds | 
B2 |  | binds
